Data published in patent US20180346580A1 (INTERVET, published 2018).
No constants are given. Whether binding was seen depends on the method and setting. Some results given as binding are weak or reduced against the parent protein; the word gives no strength. Sequences can lack the tags named with a protein.

Target: T1, HIS-tagged extracellular domain of canine IL-4 receptor alpha chain (canine)
T1 sequence: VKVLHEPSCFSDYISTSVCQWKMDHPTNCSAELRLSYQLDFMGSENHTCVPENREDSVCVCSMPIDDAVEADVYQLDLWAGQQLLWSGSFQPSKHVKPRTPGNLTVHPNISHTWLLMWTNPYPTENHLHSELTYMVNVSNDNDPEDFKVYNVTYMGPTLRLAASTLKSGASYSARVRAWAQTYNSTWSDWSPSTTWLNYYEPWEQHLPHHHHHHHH
Test: ELISA on plate-coated HIS-tagged canine IL-4Rα ECD, detection with HRP goat anti-mouse IgG

binding: binds
B1: 1A9 (antibody, V domains shown)
VH: QVPLQQSGPELVKPGASVKISCKASGYAFSSSWMNWVKQRPGKGLEWIGRIYPGDGDTKYNGKFKGKATLTADKSSSTAYMQLSSLTSEDSAVYFCARDDYDEASWGQGTLVTVSA
VL: DIVMTQSQKFMSTSVGDRVSITCKASQNVRSAVAWYQQKPGQSPKSLIYLASNRHTGVPDRFTGSGSGTDFTLTISNVQSEDLADYFCLQHWNYPFTFGSGTKLEIK
notes: member of the group m16; also called mAb 1A9; mouse anti-canine IL-4Rα monoclonal antibody 1A9
